About 13,000 (3.2%) of roughly 400,000 compounds were called active. Inconclusive results, whose numbers are uncertain, are shown with a selection of clear calls. Calls follow the shape of the dose curve; as a rule, active = well fitted cell-killing curve with a large enough effect; inconclusive = small, poorly fitted or top-dose-only effect, or effect the other way; inactive = flat fitted curve, though single readings scatter. Where the call is inconclusive, the potency comes from a doubtful curve fit.
experiment: qHTS assay for MDR1-selective chemotherapeutics: Primary screen using the drug-selected MDR subline cells KB-V1; conditions: KB-V1 MDR cells viability, CellTiter-Glo, 72 h; activity change, negative = cytotoxicity: at 46.1 µM (top of the series); also: nearly all actives have a fitted effect of over 60% in size
Summary of the method: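 Luminescent ATP read-out (CellTiter-Glo, 10 min) measures survival of drug-selected KB-V1 MDR cells after 72 h, 37 degrees C compound exposure. Medium: phenol-red-free DMEM, 10% FBS. Values from fitted concentration-response curves.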
% is scaled to controls: 0 for no effect and ±100 for the full control effect; potency is read from the fitted curve at half-maximal effect.

Row | Structure (SMILES) | activity change, negative = cytotoxicity | Potency
1 | COc1cccc(CN(C)C(=O)c2cccc(S(=O)(=O)N3CCN(c4ccccc4)CC3)c2)c1OC | inactive: -5.28% | 
2 | CC(C)CC(NC(=O)OC(C)(C)C)c1cn([C@@H](CCC(=O)OC(C)(C)C)C(=O)N2CCN(C(=O)OC(C)(C)C)CC2)nn1 (stereo partly specified) |  | inconclusive: 0.651 µM [cytotoxic, full curve]
3 | CCNc1c(C(=O)O)ccc2c1C(=O)c1ccccc1C2=O | inactive: -3.92% | 
4 | Cc1ccc(NC(=O)CNC(=O)c2ccc(Br)o2)nc1 |  | inconclusive: 20.6 µM [cytotoxic, single point]
5 | O=C(NCc1ccc(Cl)cc1)c1ccccc1CCc1ccccc1 |  | active: 20.6 µM
6 | CCc1ccc(-c2nn(-c3ccccc3)cc2C2SCC(=O)N2Cc2ccco2)cc1 (stereo unspecified) | inactive: -9.12% | 
7 | CCS(=O)(=O)c1ccc(C(=O)NC)c(Cl)c1Cl |  | inconclusive: 20.6 µM [rising, single point]
8 | COc1ccc(CNC(=O)CCn2c(=O)c3cccn3c3ccc(F)cc32)cc1 |  | inconclusive: 32.6 µM [cytotoxic, single point]
9 | CCN(CC)S(=O)(=O)c1cc(C(=O)Nc2cccnc2Cl)ccc1Cl |  | inconclusive: 20.6 µM [cytotoxic, partial curve]
10 | COc1ccccc1NC(=O)c1cnc2c(-c3ccccc3)c(C)nn2c1C |  | inconclusive: 16.4 µM [cytotoxic, partial curve, poor fit]
11 | CCN(CC)C(c1ccc(C)cc1)c1nnnn1C1CCCCC1 (stereo unspecified) |  | active: 13 µM
12 | CCc1ccc(-c2cc(C)no2)cc1S(=O)(=O)N1CCOc2ccc(C)cc21 |  | inconclusive: 0.326 µM [cytotoxic, full curve]
13 | NC(N)=N/N=C/c1ccc(OCc2ccccc2)c(OCc2ccccc2)c1 | inactive: -10.6% | 
14 | CCn1nc(NC(=O)c2ccco2)c2cc3cc(C)ccc3nc21 |  | inconclusive: 20.6 µM [cytotoxic, single point]
15 | COc1ccc(S(=O)(=O)Nc2cc3c4c(c2)CC(=O)N4CCC3)cc1 | inactive: 2.94% | 
16 | Cn1c(C(=O)Nc2ccc(Cl)cc2)cc2cc(Cl)ccc21 | inactive: 1.13% | 
17 | COc1cc(C(=O)NC(C)c2cnn(-c3ccccc3C)c2C)cc(OC)c1OC (stereo unspecified) |  | inconclusive: 16.4 µM [cytotoxic, single point]
18 | Cc1ccsc1CCN1C(=O)N(c2ccccc2)C(=O)C1CC(=O)Nc1ccc(F)cc1 (stereo unspecified) |  | inconclusive: 32.6 µM [cytotoxic, partial curve, poor fit]
19 | Cc1cccc(N2CCN(C(=O)Cn3cccc3C(=O)c3ccccc3)CC2)c1C |  | active: 16.4 µM
20 | COc1ccccc1CNC(=O)C(=O)NCC1CCCN1S(=O)(=O)c1cccs1 (stereo unspecified) |  | inconclusive: 7.31 µM [cytotoxic, partial curve]
21 | COC(=O)[C@@]12C[C@@H](CC(=O)NCc3ccc(OC)c(OC)c3)C(=O)N(CCc3ccc(OC)c(OC)c3)C1=CCC(C)(C)C2 |  | inconclusive: 8.2 µM [cytotoxic, partial curve]
22 | CC(C)(C)NC1=NCCNC(c2ccccc2)=C1 | inactive: 3.31% | 
23 | CCOC(=O)c1ccc(NC(=O)Cn2nc(SC)c(S(=O)(=O)c3ccc(Cl)cc3)c2N)cc1 |  | inconclusive: 29.1 µM [cytotoxic, single point]
24 | CC(C)Cn1c(N2CCN(CC(=O)Nc3ccc(Cl)cc3)CC2)nc2ccccc21 | inactive: 0% | 

Part of the list above in order of heavy-atom count, largest number first:
Row | Structure (SMILES) | activity change, negative = cytotoxicity | Potency
18 | Cc1ccsc1CCN1C(=O)N(c2ccccc2)C(=O)C1CC(=O)Nc1ccc(F)cc1 (stereo unspecified) |  | inconclusive: 32.6 µM [cytotoxic, partial curve, poor fit]
22 | CC(C)(C)NC1=NCCNC(c2ccccc2)=C1 | inactive: 3.31% | 
7 | CCS(=O)(=O)c1ccc(C(=O)NC)c(Cl)c1Cl |  | inconclusive: 20.6 µM [rising, single point]

Following part.

Row | Structure (SMILES) | activity change, negative = cytotoxicity | Potency
25 | Cc1cc(C)n2nc(C(=O)OCC(=O)NCc3ccccc3)nc2n1 |  | inconclusive: 16.4 µM [rising, single point]
26 | COc1cccc(C(=O)NNC(=O)Cc2ccc(Cl)cc2)c1 | inactive: 6.31% | 
27 | COc1cc(CN2CCC(C(=O)NC(c3ccc(F)cc3)c3ccc4ccccc4n3)CC2)cc(OC)c1 (stereo unspecified) |  | inconclusive: 18.4 µM [cytotoxic, partial curve, poor fit]
28 | CCOc1ccc(-n2c(=S)sc3c(=O)[nH]c(SCC(=O)NCC4CCCO4)nc32)cc1 (stereo unspecified) | inactive: -1.32% | 
29 | COc1cccc(NC(=O)CN(C)C(=O)c2ccc(NC(=O)CC3SC(N4CCCC4)=NC3=O)cc2)c1 (stereo unspecified) |  | inconclusive: 29.1 µM [rising, single point]
30 | Cc1ccc2c(c1)N(CC(=O)N1CCCCC1)C(=O)CO2 |  | inconclusive: 29.1 µM [rising, single point]
31 | Cc1ccc(NC(=O)C2CCN(C(=O)c3ccc(F)cc3)CC2)nc1 | inactive: -22.6% | 
32 | CCOC(=O)c1c[nH]c(=S)n(-c2ccccc2)c1=O |  | inconclusive: 29.1 µM [rising, single point]
33 | COc1ccc(OC)c(-n2nnc3c(sc4nc(C)c(Br)c(C)c43)c2=O)c1 | inactive: 0.722% | 
34 | O=C(CSc1n[nH]c(Cc2ccccc2)n1)Nc1ccccc1Br |  | inconclusive: 29.1 µM [cytotoxic, single point]
35 | O=C(CCN1CCOCC1)NNC(=O)Nc1cccc(Cl)c1 |  | inconclusive: 14.6 µM [rising, partial curve]
36 | CCCCCCCC(=O)NC(Nc1ccccc1OC)C(Cl)(Cl)Cl (stereo unspecified) |  | inconclusive: 29.1 µM [cytotoxic, single point]
37 | CSc1sc(C(=O)N2CCc3ccccc32)cc1S(=O)(=O)C(C)C |  | inconclusive: 5.17 µM [cytotoxic, full curve]
38 | COc1cc(C(=O)Nc2cccc(-c3nc4cc(C)ccc4o3)c2C)cc(OC)c1OC | inactive: 9.16% | 
39 | Nc1nonc1N/N=C\c1ccccc1 |  | inconclusive: 18.4 µM [cytotoxic, single point]
40 | O=C(C1CC(c2ccccc2O)=NO1)N1CCCCC1 (stereo unspecified) |  | inconclusive: 20.6 µM [cytotoxic, partial curve]
41 | Cc1cc(NCc2ccccn2)n2nc(C)c(-c3ccc(Cl)cc3)c2n1 |  | inconclusive: 23.1 µM [cytotoxic, partial curve, poor fit]
42 | O=c1c2sc3ccccc3c2n(Cc2ccccc2F)c(=O)n1Cc1ccccc1 | inactive: -14.8% | 
43 | COCC(=O)Oc1c(S(=O)(=O)c2ccccc2)c(C)nn1C(C)(C)C | inactive: -4.02% | 
44 | c1coc(-c2nc3nc4ccccc4nc3n2-c2ccc3c(c2)OCCO3)c1 | inactive: 10.1% | 
45 | CC1=C(C(=O)Nc2ccccc2)C(c2cccnc2)n2nc(SCc3ccccc3F)nc2N1 (stereo unspecified) |  | inconclusive: 29.1 µM [rising, single point]
46 | CCS(=O)(=O)Nc1ccc(C(=O)c2ccccc2)cc1 | inactive: 0% | 
47 | CSc1oc(-c2ccccc2)nc1S(=O)(=O)c1ccc(F)cc1 |  | inconclusive: 29.1 µM [cytotoxic, single point]
48 | Cc1cc(C)c2nc(-c3ccccn3)cc(C(=O)Nc3ccc(S(=O)(=O)Nc4onc(C)c4C)cc3)c2c1 | inconclusive: -2.18% | 

Row | Structure (SMILES) | activity change, negative = cytotoxicity | Potency
49 | Cc1nc2c(C(=O)NCc3ccccc3)cnn2c(C)c1Cc1ccc(F)cc1 |  | inconclusive: 18.4 µM [cytotoxic, single point]
50 | COC(=O)c1ccc(CN2C(=O)C(Cc3ccccc3)ON=C2c2ncccc2C)o1 (stereo unspecified) | inactive: -9.92% | 
51 | N#Cc1cc(NC2CCCC2)c([N+](=O)[O-])cc1C#N |  | inconclusive: 16.4 µM [cytotoxic, single point]
52 | CCC(Oc1ccccc1)C(=O)Nc1nc2ccccc2[nH]1 (stereo unspecified) |  | inconclusive: 23.1 µM [cytotoxic, partial curve, poor fit]
53 | COc1ccc(NC(=O)CC(C(=O)O)N2CCCCC2)cc1 (stereo unspecified) |  | inconclusive: 1.16 µM [rising, full curve, poor fit]
54 | CCC(C)n1cnc2c(c1=O)c1nc3ccccc3nc1n2Cc1ccc(OC)cc1 (stereo unspecified) |  | active: 14.6 µM
55 | CCn1c2ccccc2c2cc(NS(=O)(=O)c3ccc(C)cc3)ccc21 |  | inconclusive: 29.1 µM [cytotoxic, single point]
56 | Cc1c(NC(=O)Nc2ccc(Cl)c(Cl)c2)sc(=S)n1C |  | inconclusive: 29.1 µM [cytotoxic, single point]
57 | CC(=O)N1CCC2(CC1)OC(=O)C(C)=C2C(=O)Nc1cccc(Cl)c1C | inactive: 6.78% | 
58 | O=C(C1CCN(S(=O)(=O)c2ccc(Cl)cc2)CC1)N1CCCCCCC1 |  | inconclusive: 9.2 µM [cytotoxic, partial curve]
59 | Cc1ccc(-n2c(C)cc(C(=O)CN3CCCCC3)c2C)cc1 |  | inconclusive: 18.4 µM [cytotoxic, single point]
60 | O=C(CSc1nc2ncc(Br)cc2[nH]1)Nc1ccccc1-c1ccccc1 |  | inconclusive: 29.1 µM [cytotoxic, single point]
61 | CCC(ONc1ccccc1C(F)(F)F)(C(=O)NN(C)C)c1ccccc1 (stereo unspecified) | inactive: 11.7% | 
62 | COc1ccccc1N1CCN(C(=O)C2CCCN(c3ncnc4c3nc3n4CCCCC3)C2)CC1 (stereo unspecified) |  | inconclusive: 25.9 µM [cytotoxic, single point]
63 | COc1cc(NC(=O)C2CCCN2C(=O)C2CCC(C)CC2)cc(OC)c1OC (stereo unspecified) | inactive: -3.11% | 
64 | O=C(CC1N=C2c3ccccc3N=C(SCc3ccccc3F)N2C1=O)NCCc1ccccc1 (stereo unspecified) | inactive: -16% | 
65 | Cc1ccc(N2C(=O)N(CC(=O)Nc3cc(F)ccc3C)C(=O)C2C)cc1 (stereo unspecified) |  | inconclusive: 18.4 µM [cytotoxic, single point]
66 | O=C(O)c1ccc2c(=O)n3c(nc2c1)/C(=C/c1cccc(Cl)c1Cl)CCCC3 | inactive: -3.29% | 
67 | O=c1cc(O)cc2n1CCC2 | inactive: -11% | 
68 | C/C(=N\NC(N)=O)c1ccc(-n2ccnc2)cc1 |  | inconclusive: 2.06 µM [cytotoxic, full curve, poor fit]
69 | COc1ccc(-c2csc3nc(C)nc(N4CCCCC4)c23)cc1OC |  | inconclusive: 29.1 µM [cytotoxic, single point]
70 | CCOc1ccccc1CN1CCN(Cc2[nH]c3ccccc3c2C)CC1CCO (stereo unspecified) |  | inconclusive: 23.1 µM [cytotoxic, single point]
71 | Cc1ccc(O)c(N=NC2=C(O)CC(C)(C)CC2=O)c1 |  | inconclusive: 0.231 µM [cytotoxic, full curve, poor fit]
